# Assay results as given in PubChem BioAssay AID1347075 (National Center for Advancing Translational Sciences (NCATS), 2019).
# Among all 400,000 compounds or so, about 5,500 (1.4%) were called active. The inconclusive results got no clear call from the source; some entries with a clear call stand among them for comparison. Calls follow the shape of the dose curve; as a rule, active = well fitted cell-killing curve with a large enough effect; inconclusive = small, poorly fitted or top-dose-only effect, or effect the other way; inactive = flat fitted curve, though single readings scatter. Where the call is inconclusive, the potency comes from a doubtful curve fit.
# Experiment: qHTS assay for MDR1-selective chemotherapeutics: Primary screen using the parental adenocarcinoma cell KB-3-1; also: nearly all actives have a fitted effect of over 60% in size
# Settings: KB-3-1 viability, CellTiter-Glo ATP luminescence, 72 h; activity change, negative = cytotoxic: at 46.1 µM (top of the series)
# Summary of the method: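 Luminescent ATP read-out (CellTiter-Glo) measures survival of drug-naive KB-3-1 cells after 72 h compound exposure at 37 °C. Titration series was screened from lowest to highest concentration, with DMSO vehicle plates as background controls.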
# % is scaled to controls: 0 for no effect and ±100 for the full control effect; potency is read from the fitted curve at half-maximal effect.
Compound,Potency,"activity change, negative = cytotoxic"
Oc1ccc(Br)c(CN2CCN(c3ncc(Cc4ccccc4)cn3)CC2)c1,active: 20.6 µM,–
O=C(CNC(=O)c1ccccc1F)N/N=C/c1cc(Br)ccc1OC(=O)/C=C/c1ccco1,"inconclusive: 7.31 µM [cytotoxic, partial curve]",–
CCCCn1c(N)c(N(CCOC)C(=O)CCS(=O)(=O)c2ccc(C)cc2)c(=O)[nH]c1=O,"inconclusive: 8.2 µM [rising, partial curve]",–
CN(C)c1ccc(/C=C2\SC(=S)N(Nc3ncc(C(F)(F)F)cc3Cl)C2=O)cc1,–,inactive: -11.9%
O=C(CSc1ccc(Br)cc1)NCC(c1ccco1)N1CCCCC1 (stereo not drawn),"inconclusive: 29.1 µM [cytotoxic, single point]",–
COc1ccccc1C(=O)NNC(=S)NC(=O)c1sc2ccccc2c1Cl,–,inactive: -37.7%
Cc1nn(-c2nnc(NCc3ccccc3)nn2)c(C)c1Br,active: 8.2 µM,–
CCOC(=O)N1CCN(c2c(NCCN(C)Cc3ccccc3)c(=O)c2=O)CC1,–,inactive: -6.32%
CCOC(=O)N1CCN(C(=O)COc2ccc(S(=O)(=O)NC(C)C)cc2)CC1,–,inactive: -7.71%
C1=C(CCNc2ncnc3c2[nH]c2ccccc23)CCCC1,active: 5.17 µM,–
CCOC(=O)[C@@H]1[C@H]2COc3ccc(Br)cc3[C@H]2N2C(=O)N(c3ccc(C)cc3)C(=O)[C@@]12C,"inconclusive: 32.6 µM [rising, single point]",–
N/C(=N/O)c1nc(N2CCCC2)nc(N(c2ccccc2)c2ccccc2)n1,"inconclusive: 29.1 µM [cytotoxic, single point]",–
O=c1[nH]c(C2CCN(S(=O)(=O)c3cccc(C(F)(F)F)c3)CC2)nc2c1nnn2Cc1cccc(F)c1,"inconclusive: 18.4 µM [cytotoxic, single point]",–
CC1(C)Cc2c(sc3ncnc(NNC(=S)NCc4ccccc4)c23)CO1,active: 5.17 µM,–
CCOC(=O)c1sc(NC(=O)CCN2C(=O)c3cccc([N+](=O)[O-])c3C2=O)c(C(=O)OCC)c1C,–,inactive: -1.37%
CCN1CCCC1CNCC(O)COc1ccc(C(C)(C)C)cc1C (stereo not drawn),–,inactive: -5.92%
COc1ccc(C(CNC(=O)COc2ccccc2C)N2CCCCC2)cc1 (stereo not drawn),–,inactive: -2.24%
O=C(C[N+]1(CC(O)c2ccccc2)CCOCC1)c1ccccc1 (stereo not drawn),–,inactive: 8.94%
CC(C)NS(=O)(=O)c1ccc(CCC(=O)Nc2cc(Cl)ccc2Oc2ccccc2)cc1,"inconclusive: 20.6 µM [cytotoxic, single point]",–
C=CCn1c(Sc2ncc([N+](=O)[O-])s2)n[nH]c1=O,"inconclusive: 29.1 µM [cytotoxic, single point]",–
C=CCCC(=O)Nc1nc(C)c(-c2csc(Nc3cc(Cl)ccc3OC)n2)s1,"inconclusive: 20.6 µM [cytotoxic, single point]",–
COc1ccc(-n2c(SCC(=O)N3CCOCC3)nnc2C(C)N2CCCCC2)cc1 (stereo not drawn),"inconclusive: 23.1 µM [rising, partial curve, poor fit]",–
COc1ccc(C(=O)Nc2ccc3oc(Cc4ccc(Cl)cc4)nc3c2)cc1OC,"inconclusive: 29.1 µM [cytotoxic, single point]",–

Compound,Potency,"activity change, negative = cytotoxic"
Cc1cccc(C)c1-n1c(SCC(=O)N2CC(=O)Nc3ccccc32)nc2ccccc2c1=O,"inconclusive: 25.9 µM [cytotoxic, single point]",–
COc1ccc([N+](=O)[O-])c(S(=O)(=O)c2ccccc2)n1,"inconclusive: 29.1 µM [cytotoxic, single point]",–
Cc1nn(C)c2ncc(C(=O)c3cc(F)ccc3O)cc12,–,inactive: -15.1%
COc1ccc(-c2c([C@H]3[C@H]4C=CC[C@@H](C)[C@@H]4C(=O)N3Cc3ccccc3)ccc3ccccc23)cc1OC,"inconclusive: 25.9 µM [cytotoxic, single point]",–
COc1ccc(-n2nc(C(=O)Nc3cccc(C)n3)c3c4ccccc4n(C)c3c2=O)cc1,–,inactive: -1.23%
CC(C)CN(CC(C)C)CC(O)CN(c1ccccc1)S(=O)(=O)c1ccccc1[N+](=O)[O-] (stereo not drawn),"inconclusive: 25.9 µM [cytotoxic, single point]",–
CC(=O)Nc1cccc(-c2ccnc3c2CC(C(=O)NCc2cccc(Cl)c2)O3)c1 (stereo not drawn),"inconclusive: 29.1 µM [cytotoxic, single point]",–
Cc1ccc([N+](=O)[O-])c(OCCn2cnc3ccccc32)c1,"inconclusive: 16.4 µM [cytotoxic, single point]",–
O=C1C2CCCN2C(=S)N1c1cc(Cl)ccc1Cl (stereo not drawn),"inconclusive: 18.4 µM [cytotoxic, single point]",–
CC1(C)CC2CC(C)(CN2S(=O)(=O)c2ccc(C(=O)Nc3ccc(Cl)c(S(=O)(=O)N4CCOCC4)c3)cc2)C1 (stereo not drawn),active: 2.91 µM,–
COc1ccccc1N1CCN(C(=O)c2ccncc2)CC1,–,inactive: 10.3%
COc1ccc(-c2nn(-c3ccccc3)cc2C(=O)Nc2nccs2)cc1,"inconclusive: 23.1 µM [cytotoxic, single point]",–
COC(=O)[C@@]1(Cc2ccc(F)cc2)[C@H]2c3cc(C(=O)N4CCCC4)n(CCc4c[nH]c5ccccc45)c3C[C@H]2CN1C(=O)c1ccccc1,"inconclusive: 23.1 µM [cytotoxic, single point]",–
O=C(c1ccccc1)c1ccc(OCC(O)CN2CCN(Cc3ccccc3)CC2)cc1 (stereo not drawn),"inconclusive: 25.9 µM [cytotoxic, single point]",–
CC(=O)C1=NN(c2ccccc2)C(c2ccc3c(c2)OCO3)N1c1ccccc1 (stereo not drawn),"inconclusive: 23.1 µM [cytotoxic, single point]",–
COc1ccc(/C=C/C(=O)NC(=S)Nc2ccccc2C(=O)NC2CCCCC2)cc1,–,inactive: -0.149%
COc1cc2c(cc1NC(=O)c1cccc([N+](=O)[O-])c1C)oc1ccccc12,"inconclusive: 22.4 µM [cytotoxic, single point]",–
CCOC(=O)C1CCN(S(=O)(=O)c2ccc3c(c2)N(C(C)=O)CC(C)S3)CC1 (stereo not drawn),"inconclusive: 20.6 µM [cytotoxic, single point]",–
CCOC(=O)Cc1csc(NC(=O)c2cc(-c3ccncc3)nc3ccccc23)n1,–,inactive: -7.01%
Cc1ccc(-n2ncc3c2CCCC3NC(=O)CCC2=NNC(=O)CC2)cc1C (stereo not drawn),"inconclusive: 29.1 µM [cytotoxic, single point]",–
O=C(CN1CCC(C(=O)c2ccc(F)cc2)CC1)NCc1ccccc1F,"inconclusive: 18.4 µM [cytotoxic, single point]",–
Cc1cccc(N2CCN(C3C(=O)Nc4ccccc4-n4nnnc43)CC2)c1C (stereo not drawn),"inconclusive: 18.4 µM [cytotoxic, single point]",–
COCCNC(=O)CCCn1c(=O)c2ccccc2n(Cc2ccccc2C#N)c1=O,–,inactive: 11.2%

Compound,Potency,"activity change, negative = cytotoxic"
Cc1[nH]c2ccccc2c1/C=C/c1c(C)[nH]c2ccccc12,"inconclusive: 29.1 µM [cytotoxic, single point]",–
CC(=O)Nc1ccc(NC(=O)CSc2nc3c([nH]c4ccccc43)c(=O)n2-c2ccccc2F)cc1,"inconclusive: 32.6 µM [rising, partial curve, poor fit]",–
COc1ccc2nc(SCC(=O)N(C)C3CCCCC3)c(C#N)cc2c1,–,inactive: 5.09%
O=C(c1ccco1)N1CCN(Cc2cccc([N+](=O)[O-])c2)CC1,–,inactive: -1.04%
Cc1ccc2c(CNCCc3ccco3)c(C(=O)O)n(Cc3ccc(F)cc3)c2c1,"inconclusive: 29.1 µM [cytotoxic, single point]",–
COc1ccc([C@@H]2CC=C(C(=O)O)[C@H](c3ccc(C)cc3)N2S(=O)(=O)c2ccccc2C)cc1,–,inactive: 0%
COc1cc(/C=C/C(=O)OC2CC3CCC2(C)C3(C)C)ccc1O (stereo not drawn),"inconclusive: 0.0092 µM [rising, full curve]",–
Cn1c(N)c(C(=O)COC(=O)C2(c3ccc(Cl)cc3)CCCC2)c(=O)n(C)c1=O,"inconclusive: 23.1 µM [cytotoxic, partial curve, poor fit]",–
C[C@@H]1O[C@H](CCc2cccc(Cl)c2)CC2=C1C(=O)OC(C)(C)O2,"inconclusive: 20.6 µM [cytotoxic, single point]",–
COc1ccccc1NC(=O)CSc1nnc(Cc2ccccc2)o1,–,inactive: -6.1%
O=C(O)/C=C/C(=O)NNC(=O)c1ccccc1Br,–,inactive: -3.22%
N#C/C(=C(/O)c1ccc(F)cc1)c1nc2ccccc2s1,active: 8.2 µM,–
CCCCn1c(N)c(N(CC(C)C)C(=O)C2CCN(S(=O)(=O)c3ccccc3)CC2)c(=O)[nH]c1=O,–,inactive: 7.24%
COc1ccc(/C=C(\C#N)C(=O)NCc2cccnc2)cc1OC,"inconclusive: 29.1 µM [rising, single point]",–
Cn1nnc2c[n+](CC(=O)c3ccc(Cl)cc3)cc(Br)c21,"inconclusive: 20.6 µM [cytotoxic, partial curve, poor fit]",–
CCN(CC)S(=O)(=O)c1cc(NC(=O)CNc2cccc(S(=O)(=O)N3CCCC3)c2)ccc1C,active: 2.91 µM,–
Cc1nn(-c2ccccc2)c(-n2cccc2)c1C(=O)NCCCN1CCN(c2ccccc2F)CC1,–,inactive: -14.8%
COc1ccc(CCNc2cc(C)[nH]c(=O)c2)cc1OC,–,inconclusive: 0.128%
Cc1cc(C(=O)CSc2nnnn2C)c(C)n1-c1ccc2c(c1)OCCO2,–,inactive: -16.9%
COc1ccc(CNS(=O)(=O)c2cn(C)c(=O)n(C)c2=O)cc1,"inconclusive: 16.4 µM [rising, partial curve, poor fit]",–
Cc1cc(C)c2cc3c(ccn3C3OC[C@H](O)[C@H](O)[C@H]3O)cc2n1 (stereo partly drawn),"inconclusive: 3.66 µM [rising, partial curve, poor fit]",–
CC(C)C1CC(CCNCc2ccc3c(c2)OCO3)(c2ccccc2)CCO1 (stereo not drawn),"inconclusive: 32.6 µM [cytotoxic, single point]",–

# Record cards, as listed above.
# N#C/C(=C(/O)c1ccc(F)cc1)c1nc2ccccc2s1 in the list: Potency: active: 8.2 µM
# COc1ccccc1C(=O)NNC(=S)NC(=O)c1sc2ccccc2c1Cl in the list: activity change, negative = cytotoxic: inactive: -37.7%
# CC(C)NS(=O)(=O)c1ccc(CCC(=O)Nc2cc(Cl)ccc2Oc2ccccc2)cc1 in the list: Potency: inconclusive: 20.6 µM [cytotoxic, single point]
# COc1ccc(-c2c([C@H]3[C@H]4C=CC[C@@H](C)[C@@H]4C(=O)N3Cc3ccccc3)ccc3ccccc23)cc1OC in the list: Potency: inconclusive: 25.9 µM [cytotoxic, single point]
